PubChem BioAssay AID652243, Drosophila RNAi Screening Center, 2013
The deposit covers about 24,000 reagents; shown is a random part of those that have a named target and a result. In the full data, 246 (1%) were called active. 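Plates not normalised; calls are printed but the firefly/Renilla ratio behind them is not deposited; fold cut for lowering reported inconsistently.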 Raw values are not corrected between plates. Names joined by + are all predicted targets of the reagent. The record does not give: the amount of reagent.

Purpose: 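Knock-downs that decrease or increase androgen receptor reporter signal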 (primary screen)
Cell system: Drosophila S2R+ cells
Reagents: long dsRNA against Drosophila genes
Timing: 72 h (48 h, then 24 h hormone)
Challenge: synthetic androgen R1881 at 10 nM for 24 h
Measured: 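Per-well raw luminescence of the androgen-driven firefly reporter and of the Renilla control, two replicates each, without normalisation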
Direction: firefly reporter light: higher = more light from androgen-responsive reporter; Renilla control light: higher = more constitutive control signal (cell number, transfection)
Call rule: 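Across duplicate plates, a knock-down whose log firefly/Renilla ratio shifted a set fold down or up from the GFP/LacZ control mean was a hit; the downward cut appears as both 1.5 and 3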
Calls: active = hit: reporter lowered or raised; inactive = no hit

How did the screen score CG4882 [DRSC04495]?
firefly reporter light, replicate 1: 2.71e5; firefly reporter light, replicate 2: 2.40e5; Renilla control light, replicate 1: 1.52e6; Renilla control light, replicate 2: 8.26e5; call: inactive

For CG4882 [DRSC29963], what does the deposit list?
firefly reporter light, replicate 1: 5.04e5; firefly reporter light, replicate 2: 4.96e5; Renilla control light, replicate 1: 1.08e6; Renilla control light, replicate 2: 1.30e6; call: inactive

For CG7974 [DRSC08607], how do the results read?
firefly reporter light, replicate 1: 8.36e5; firefly reporter light, replicate 2: 7.03e5; Renilla control light, replicate 1: 7.23e5; Renilla control light, replicate 2: 7.10e5; call: inactive

How did the screen score CG7974 [DRSC26643]?
firefly reporter light, replicate 1: 4.46e5; firefly reporter light, replicate 2: 4.78e5; Renilla control light, replicate 1: 7.29e5; Renilla control light, replicate 2: 7.75e5; call: inactive

For CG32445 [DRSC11678], how do the results read?
firefly reporter light, replicate 1: 1.65e5; firefly reporter light, replicate 2: 1.39e5; Renilla control light, replicate 1: 2.12e6; Renilla control light, replicate 2: 1.23e6; call: inactive

With ND-MWFE [DRSC06364], how do the results read?
firefly reporter light, replicate 1: 3.07e5; firefly reporter light, replicate 2: 2.16e5; Renilla control light, replicate 1: 2.27e6; Renilla control light, replicate 2: 2.06e6; call: active

What is on record for CG40188 (retired record) [DRSC37762]?
firefly reporter light, replicate 1: 1.08e6; firefly reporter light, replicate 2: 9.53e5; Renilla control light, replicate 1: 2.35e6; Renilla control light, replicate 2: 2.55e6; call: inactive

For S-Lap5 [DRSC06732], what does the deposit list?
firefly reporter light, replicate 1: 65976; firefly reporter light, replicate 2: 1.23e5; Renilla control light, replicate 1: 2.11e6; Renilla control light, replicate 2: 2.11e6; call: inactive

With S-Lap5 [DRSC24405], how do the results read?
firefly reporter light, replicate 1: 6.62e5; firefly reporter light, replicate 2: 6.05e5; Renilla control light, replicate 1: 7.62e5; Renilla control light, replicate 2: 6.33e5; call: inactive

With MtnD [DRSC22733], how do the results read?
firefly reporter light, replicate 1: 6.49e5; firefly reporter light, replicate 2: 7.75e5; Renilla control light, replicate 1: 1.02e6; Renilla control light, replicate 2: 1.27e6; call: inactive

For Pfas [DRSC03480], what does the deposit list?
firefly reporter light, replicate 1: 7.97e5; firefly reporter light, replicate 2: 9.35e5; Renilla control light, replicate 1: 2.25e6; Renilla control light, replicate 2: 1.45e6; call: inactive

What is on record for Obp56b [DRSC06551]?
firefly reporter light, replicate 1: 87719; firefly reporter light, replicate 2: 98678; Renilla control light, replicate 1: 1.06e6; Renilla control light, replicate 2: 9.81e5; call: inactive

With DCP1 [DRSC04091], what does the deposit list?
firefly reporter light, replicate 1: 9.04e5; firefly reporter light, replicate 2: 7.73e5; Renilla control light, replicate 1: 2.42e6; Renilla control light, replicate 2: 2.68e6; call: inactive

With DCP1 [DRSC29844], what was measured?
firefly reporter light, replicate 1: 3.97e5; firefly reporter light, replicate 2: 4.11e5; Renilla control light, replicate 1: 7.18e5; Renilla control light, replicate 2: 1.10e6; call: inactive

For CG8180 [DRSC07092], what does the deposit list?
firefly reporter light, replicate 1: 1.16e6; firefly reporter light, replicate 2: 1.46e6; Renilla control light, replicate 1: 1.89e6; Renilla control light, replicate 2: 2.20e6; call: inactive

With CG8180 [DRSC07093], what does the deposit list?
firefly reporter light, replicate 1: 31230; firefly reporter light, replicate 2: 14606; Renilla control light, replicate 1: 8.17e5; Renilla control light, replicate 2: 8.17e5; call: inactive

How did the screen score CG15369 [DRSC18041]?
firefly reporter light, replicate 1: 2.01e5; firefly reporter light, replicate 2: 2.77e5; Renilla control light, replicate 1: 1.68e6; Renilla control light, replicate 2: 1.95e6; call: inactive

For CG7215 + Prx5 [DRSC16214], what was measured?
firefly reporter light, replicate 1: 2.02e5; firefly reporter light, replicate 2: 62529; Renilla control light, replicate 1: 1.69e6; Renilla control light, replicate 2: 1.20e6; call: inactive

How did the screen score CG7215 + Prx5 [DRSC16215]?
firefly reporter light, replicate 1: 25323; firefly reporter light, replicate 2: 44854; Renilla control light, replicate 1: 4.57e5; Renilla control light, replicate 2: 6.19e5; call: inactive

For pnt [DRSC23204], how do the results read?
firefly reporter light, replicate 1: 4.22e5; firefly reporter light, replicate 2: 4.67e5; Renilla control light, replicate 1: 5.80e5; Renilla control light, replicate 2: 3.81e5; call: inactive

What is on record for pnt [DRSC29116]?
firefly reporter light, replicate 1: 4.31e5; firefly reporter light, replicate 2: 3.70e5; Renilla control light, replicate 1: 1.11e6; Renilla control light, replicate 2: 8.63e5; call: inactive

Entries listed above with an active call:
ND-MWFE [DRSC06364] | firefly reporter light, replicate 1 = 3.07e5; firefly reporter light, replicate 2 = 2.16e5; Renilla control light, replicate 1 = 2.27e6; Renilla control light, replicate 2 = 2.06e6; call = active
